Measurements reported in PubChem BioAssay AID1671195 (Yale University, 2021)
Here is one part, drawn at random, of about 22,000 reagents tested. Of all reagents, about 1,510 (6.9%) got an active call. 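Active includes knockdowns raising or lowering LDL uptake; positive z-scores mean more uptake, negative mean less.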 Unmarked entries are inactive.

- Test: 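Knockdowns that increase or decrease uptake of fluorescent LDL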 (primary screen)
- System: human Huh7 hepatoma cells
- Reagents: siRNA pool against human genes, 18 nM
- Duration: about 2 to 2.5 days of knockdown, then 8 h LDL uptake
- Conditions: DiI-labelled LDL at 30 µg/ml for 8 h, in lipoprotein-deficient serum medium
- Measured: 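Per-cell DiI-LDL intensity by automated imaging; well means scaled to the plate median and given as a robust z-score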
- Direction: robust z-score: higher = more LDL uptake after knockdown
- Call rule: 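a gene counts as active if at least two replicate z-scores exceed ±2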

gene	PubChem SID	robust z-score, replicate 1	robust z-score, replicate 2	robust z-score, replicate 3
GPX7 (glutathione peroxidase 7)	SID442900806	-0.966	-0.303	-1.16
OTUD5 (OTU deubiquitinase 5)	SID442893525	-0.196	0.977	-0.661
GOLGA2 (golgin A2)	SID442900356	-0.886	-0.597	-0.766
LOC401513 (retired record)	SID442890002	0.295	0.654	0.48
CHMP6 (charged multivesicular body protein 6)	SID442898473	-0.604	-0.0712	-0.834
GART	SID442894138	-1.1	0.437	0.571
HYI (hydroxypyruvate isomerase (putative))	SID442903249	-1.31	-1.18	-1.27
IL32 (interleukin 32)	SID442903896	-1.45	-1.01	-1.81
DEFB123 (defensin beta 123)	SID442898094	-0.502	-0.544	-0.334
SASH3 (SAM and SH3 domain containing 3)	SID442884416	-2.06 (active)	-2.09	-2.13
LOC441055 (retired record)	SID442899758	-0.412	-0.857	-0.725
CDV3 (CDV3 homolog)	SID442885223	1.28	1.59	1.97
TACO1 (translational activator of cytochrome c oxidase I)	SID442892371	0.16	1.69	-1.32
GOLGA3 (golgin A3)	SID442888114	1.38	1.12	-0.151
HMCN1 (hemicentin 1)	SID442884638	1.24	1.41	3.62
LOC401087 (retired record)	SID442896052	-0.0294	-0.362	-0.307
TUFT1 (tuftelin 1)	SID442892136	1.7	-0.815	-0.271

A stretch from the list above, for reference:
gene	PubChem SID	robust z-score, replicate 1	robust z-score, replicate 2	robust z-score, replicate 3
CDV3 (CDV3 homolog)	SID442885223	1.28	1.59	1.97
TACO1 (translational activator of cytochrome c oxidase I)	SID442892371	0.16	1.69	-1.32
GOLGA3 (golgin A3)	SID442888114	1.38	1.12	-0.151
HMCN1 (hemicentin 1)	SID442884638	1.24	1.41	3.62

More entries follow:
gene	PubChem SID	robust z-score, replicate 1	robust z-score, replicate 2	robust z-score, replicate 3
JAKMIP1 (janus kinase and microtubule interacting protein 1)	SID442901959	-1.02	-0.691	-1.25
GADL1 (GAD like acidic amino acid decarboxylase 1)	SID442899983	-1.39	0.0779	-0.772
LOC388943 (retired record)	SID442897116	0.0376	-0.684	-0.401
RAB11A (RAB11A, member RAS oncogene family)	SID442887669	1.21	1.07	0.324
PIP5KL1 (phosphatidylinositol-4-phosphate 5-kinase like 1)	SID442890834	0.457	0.331	0.304
COL6A2 (collagen type VI alpha 2 chain)	SID442899713	-0.809	-1.05	-0.124
MICOS10	SID442893782	-0.278	-0.00856	0.319
SYNM (synemin)	SID442904493	-1.78	-1.92	-1.32
ALDH1A3 (aldehyde dehydrogenase 1 family member A3)	SID442890465	-0.00549	0.612	0.635
ALDH1A3 (aldehyde dehydrogenase 1 family member A3)	SID442890980	0.487	-0.253	0.804
NKD2 (NKD inhibitor of Wnt signaling pathway 2)	SID442898512	-0.163	-0.536	-0.824
